From patent US20090061031A1, “Compositions and methods for treating obesity, obesity related disorders and for inhibiting the infectivity of human immunodeficiency virus” (priority 2006, published 2009)
At least one structure is not confirmed: it was looked up by name or label, or the drawing left a doubt.

Assays:
[1] = test system: Human mesenchymal stem cells (hMSCs); assay: Adipocyte differentiation of hMSCs in adipogenic medium, Oil Red O staining; type: cell-based; details: oleuropein at 1, 10 and 100 μM, day 12
apoE ko mice = assay: Diet-induced atherosclerosis in Western diet-fed apoE ko mouse; type: in vivo; details: male and female apoE ko mice, oleuropein in drinking water, 4 months, p<0.05
Description: To test whether oleuropein reduces diet-induced atherosclerosis, oleuropein was administered to apoE ko mice at various doses from 0.25 mg/ml, 2.5 mg/ml, and 25 mg/ml in the drinking water followed by feeding them with a Western diet containing 42% of calories from fat (Harlan-Teklad). […] The mice were sacrificed, blood and tissues collected. Aortas were dissected from the aortic valve to the iliac bifurcation, opened longitudinally, and pinned to a black wax surface. Atherosclerotic lesions were stained with Oil Red O. The total area of the aorta and the atherosclerotic lesion areas were determined by planimetry using Image Pro software.

[2] = Heat stability of oleuropein during extraction; type: physicochemical; details: aqueous extraction of olive leaves
hMSC-derived adipocytes = assay: De-differentiation of hMSC-derived adipocytes and transdifferentiation into osteoblasts; type: cell-based, human
[3] = test system: Human mesenchymal stem cells (hMSCs); assay: Gene expression by RT-PCR in hMSCs during adipogenic induction; type: cell-based; details: hMSCs in adipogenic medium
[4] = 48 hours after the addition of oleuropein

C/C=C1/[C@H](O[C@@H]2O[C@H](CO)[C@@H](O)[C@H](O)[C@H]2O)OC=C(C(=O)OC)[C@H]1CC(=O)OCCc1ccc(O)c(O)c1 (single isomer, unassigned) [Ole, oleuropein]
adipocyte differentiation (Oil Red O staining) [1]: dose dependent inhibition of adipocyte differentiation | aortic atherosclerotic lesion area (apoE ko mice): significant reduction in lesion area | heating temperature that inactivates [2]: above 86 °C | PPARδ expression (hMSC-derived adipocytes; [4]): up-regulated | expression of adipogenic marker genes PPARγ2, LPL, αP2 (hMSC-derived adipocytes; [4]): down-regulated | de-differentiation of adipocytes (Oil Red O staining) (hMSC-derived adipocytes; fully differentiated adipocytes from hMSC, oleuropein 80 nM, 48 hours): lost their Oil Red 0 staining | transdifferentiation after switch to osteogenic medium (hMSC-derived adipocytes; oleuropein-treated cells, osteogenic medium 6 days): transdifferentiation into osteoblasts | PPARδ expression [3]: up-regulates | expression of adipogenic genes PPARγ2, LPL, αP2 [3]: down-regulates
